The source of these data is article PMC9508819, “Rbp95 binds to 25S rRNA helix H95 and cooperates with the Npa1 complex during early pre-60S particle maturation”.

No constants are given. Whether binding was seen depends on the method and setting. In cells and extracts the contact can be indirect. These calls come from enrichment with a bait or labelling near it, and not all partners need be listed.

The target of assay [1] is T1, Rbp95-TurboID (S. cerevisiae) (UniProt P25617).
T1 sequence: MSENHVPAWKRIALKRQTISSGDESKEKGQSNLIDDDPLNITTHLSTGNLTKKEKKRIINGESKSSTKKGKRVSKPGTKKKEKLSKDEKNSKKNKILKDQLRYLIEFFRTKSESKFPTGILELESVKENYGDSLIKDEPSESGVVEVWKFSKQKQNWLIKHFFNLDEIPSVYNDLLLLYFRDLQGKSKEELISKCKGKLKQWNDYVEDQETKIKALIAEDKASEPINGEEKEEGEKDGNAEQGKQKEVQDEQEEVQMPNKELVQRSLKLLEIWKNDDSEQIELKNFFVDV
Kind of assay: proximity labelling; TurboID: C-terminally TurboID-tagged bait from the CUP1 promoter in yeast, 500 uM copper sulfate and biotin for 1 h; biotinylated proteins purified on streptavidin agarose, LC-MS/MS; enrichment against NLS-GFP-TurboID control.

For assay [2], the target named is T2, Rbp95-TAP (S. cerevisiae) (UniProt P25617).
T2 sequence: T1 sequence
Kind of assay: affinity purification with mass spectrometry; tandem-affinity purification from yeast lysate, elution from Calmodulin Sepharose with 0.8% ammonium hydroxide; label-free semi-quantitative LC-MS/MS (LFQ, MaxQuant); for Figure 8A, B from wild-type and Δrbp95 strains.

B1: Dhr2 (enzyme, UniProt P36009 1-735)
chain: MAANSNSRVASNHTSKKQKVRRNIHPFTNNTRIKRASKIVKFNDSGEGDHVSDQRSNKENVLTYKSLKSRASDLLKMRETLPVYQHKREIMSYIESNPVTVLIGETGSGKSTQIPQFVLEKLYDTKKHGSIAVTQPRRVAAINLATRVAQEHGCKLGEQVGYSVRFDNTTTTRTRLKYLTDGMLLRELMMNSDLREYSVIVIDEAHERTVLTDLILGFLKSLIQGPRPDLRIIVMSATLQAEKFSEFFNNAPILFVEGRKFDVKQYYLKAPTDDIVDAVIRCCIQINQGEELGDILCFLPGQEEIDKAVTIMEKIAKYVSDEAPVPLIVPYPLYAALPAVQQSLVFAPIKGFKRKVVFSTNIAETSVTISGVKFVVDSGLRKVKVWRHQLGLATLLTVPISQASAMQRSGRAGRESEGKSFRLYCESDYVKLPKQSEPEIARSDVTSPVLMLKRYGVDDLLNWTWFENPGKEAIVMGLQELYELGALDTRGKITKRGQQMALLPLQPHLSSVLIKASEVGCLSQVIDIVSCLSVENLLLNPSPEERDEVNERRLSLCNAGKRYGDLIMLKELFDIYFYELGKSQDASSERNDWCKGLCISIRGFKNVIRVRDQLRVYCKRLFSSISEEDEESKKIGEDGELISKILKCFLTGFIKNTAIGMPDRSYRTVSTGEPISIHPSSMLFMNKSCPGIMYTEYVFTTKGYARNVSRIELSWLQEVVTNAAAVAKQKVSDSK
Take B1: the binding result in assay [1] is on record as “binds”.

B2: Bms1 (protein, UniProt Q08965 1-1183)
chain: MEQSNKQHRKAKEKNTAKKKLHTQGHNAKAFAVAAPGKMARTMQRSSDVNERKLHVPMVDRTPEDDPPPFIVAVVGPPGTGKTTLIRSLVRRMTKSTLNDIQGPITVVSGKHRRLTFLECPADDLNAMIDIAKIADLVLLLIDGNFGFEMETMEFLNIAQHHGMPRVLGVATHLDLFKSQSTLRASKKRLKHRFWTEVYQGAKLFYLSGVINGRYPDREILNLSRFISVMKFRPLKWRNEHPYMLADRFTDLTHPELIETQGLQIDRKVAIYGYLHGTPLPSAPGTRVHIAGVGDFSVAQIEKLPDPCPTPFYQQKLDDFEREKMKEEAKANGEITTASTTRRRKRLDDKDKLIYAPMSDVGGVLMDKDAVYIDIGKKNEEPSFVPGQERGEGEKLMTGLQSVEQSIAEKFDGVGLQLFSNGTELHEVADHEGMDVESGEESIEDDEGKSKGRTSLRKPRIYGKPVQEEDADIDNLPSDEEPYTNDDDVQDSEPRMVEIDFNNTGEQGAEKLALETDSEFEESEDEFSWERTAANKLKKTESKKRTWNIGKLIYMDNISPEECIRRWRGEDDDSKDESDIEEDVDDDFFRKKDGTVTKEGNKDHAVDLEKFVPYFDTFEKLAKKWKSVDAIKERFLGAGILGNDNKTKSDSNEGGEELYGDFEDLEDGNPSEQAEDNSDKESEDEDENEDTNGDDDNSFTNFDAEEKKDLTMEQEREMNAAKKEKLRAQFEIEEGENFKEDDENNEYDTWYELQKAKISKQLEINNIEYQEMTPEQRQRIEGFKAGSYVRIVFEKVPMEFVKNFNPKFPIVMGGLLPTEIKFGIVKARLRRHRWHKKILKTNDPLVLSLGWRRFQTLPIYTTTDSRTRTRMLKYTPEHTYCNAAFYGPLCSPNTPFCGVQIVANSDTGNGFRIAATGIVEEIDVNIEIVKKLKLVGFPYKIFKNTAFIKDMFSSAMEVARFEGAQIKTVSGIRGEIKRALSKPEGHYRAAFEDKILMSDIVILRSWYPVRVKKFYNPVTSLLLKEKTEWKGLRLTGQIRAAMNLETPSNPDSAYHKIERVERHFNGLKVPKAVQKELPFKSQIHQMKPQKKKTYMAKRAVVLGGDEKKARSFIQKVLTISKAKDSKRKEQKASQRKERLKKLAKMEEEKSQRDKEKKKEYFAQNGKRTTMGGDDESRPRKMRR
Regarding B2, the binding result in assay [1] is given as “binds”.

B3: Nop6 (protein, UniProt Q07623 1-225)
chain: MGSEEDKKLTKKQLKAQQFRKSKEEKDQEKDVKKEQAPEGKRPNSAAGNDGEEPVKKKRKTRRGRGGKGKNGKKGNRFIVFVGSLPRDITAVELQNHFKNSSPDQIRLRADKGIAFLEFDADKDRTGIQRRMDIALLQHGTLLKEKKINVELTVGGGGNSQERLEKLKNKNIKLDEERKERLTKMINDGNQKKIAKTTATAAQTSGTDNKPVPAGIHPDRAKLLK
B3: the binding result in assay [1] is recorded as “binds”.

B4: Npa2 (protein, UniProt P47108 1-1174)
chain: MGDLTEELSIPDNAQDLSKLLRSTSTKPHQIAEIVSKFDKLETYFPKKEIFVLDLLIDRLNNGNLDDFKTSEHTWIIFTRLLDAINDPISIKKLLKKLKTVPVMIRTFFLWPKDKLLTRSVSFIKAFFAINDYLIVNFSVEESFQLLEHAINGLSSCPTTDFALSYLQDACNLTHVDNITTTDNKIATCYCKHMLLPSLRYFAQTKNSASSNQSFIRLSHFMGKFLLQPRIDYMKLNKKFVQENASEITDDMAYYYFATFVTFLSKDNFAQLEVIFTILGAKKPSLECRFLNLLSESKKTVSQEFLEALLLEMLASTDESGVLSLIPIILKLDIEVAIKHIFRLLELIQLENLNDPLFSSHIWDLIIQSHANARELSDFFAKINEYCSRKGPDSYFLINHPAYVKSITKQLFTLSSLQWKNLLQALLDQVNHDSTNRVPLYLIRICLEGLSEGASRATLDEVKPILSQVFTLESFNNSLQWDLKYHIMEVYDDIVPAEELEKIDYVLSSNIFDTTSADVEELFFYCFKLREYISFDLSDAKKKFMRHFEILDEERKSNLSYSVVSKFATLVNNNFTREQISSLIDSLLLNSTNLSSLLKNDDIFEETNITYALINKLASSYHQTFALEALIQIPIQCINKNVRVALINNLTCESFCLDSATRECLLHLLSSPTFKSNIETNFYELCEKTIMSPEMAISETGDEKKEIEDKISIFEKVWTNHLSQAKEPVSEKFLESGYDIVKQSMSLSNGDSKLIIAGFTIAKFLKPDNKHRDIQGMAISYAVKILENYSENFESETIPLFRISMSTLYKIITTGQGDISKHKSRILDIFSKIMLRYHSKKVYHAPEEQEMFLVHSLLTENKLEYIFAEYLNIEHTDKCDSALGFCLEESLKQGPDAFNRLLWNSAKSFSTISQPCAEKFVRVFIIMSKRIARDNNLGHHLFVIALLEAYTYCDIEKFGYKSYLLLFNAIKEFLVSKPWLFSQYCIEMLLPFCLKTLAFIVNHESTDEINEGFINIIEVIDHMLLVHRFKFSNRHHLFNSVLCQILEIIAIHDGTLCANSADAVARLITNYCEPYNVSNAQNGQKNNLSSKISLIKQSIRKNVLVVLTKYIQLSITTQFSLNIKKSLQPGIHAIFDILSQNELNQLNAFLDTPGKQYFKALYLQYKKVGKWRED
As to B4, the binding result in assay [2] and in assay [1] was “binds” each time.

B5: Rrp12 (protein, UniProt Q12754 1-1228)
chain: MDQDKVAFLLELEDKLAKIRSQVNSKLENQKHIAIILTAVEENIAGQATNDVSKNIVNYIISFMSLLDQAVDPSTHEIKDIQLASSSTYLLDLIFHYSPKVLLRSKFSEILTKIAPCITAEKANAPLIRAAIGCLESLLIAQDAQAWNNTYDLNVTPKRGLQGILELSLDVRPKVRKRALDAVHAVLLNPPVAPTAEHVAAVFVADFCDKQLAGILNDLSNLSNKQLKAQKTKEDINASVMRSLRLITSVVSTGQWPSSQIEPLCDVLLGVTKSSEQYLVSASFECFESMFKTMAETTISSGLAENKYLRVLDTIFALKPSNVDTLLTKSWIAVVIKGMSTYATHQPLKALRKIPGVFHIMCTYLASETPEVYQAASQCLISILSESVKDDLLLYTPSVDEKVFKNVDEIISQIAKTFIDFLSIRYSHCSREILKILVAAFNKFRYRSNPHFLKSLKIVDTWRVNEEQFMDLRNEIELVIGASISAMGPEMILAEAPLNLDNPSSERPGRAWLLPLIRDYTKNANLATFQNELAPYIKSFQSKFDKVPEESIQLRVFQTIVDQIWSTLPRFCELPMDLRESFTDEFASELSSLLYSEVELRTTICHALKVLAESNVSYAEESSSHNVLLLQRFPISEAQKNIEYLSTKSTNLLAVLFNVYTQTTPNARSYILETIDQYLKITSKEDLEKTFNNVCGLLKNSMNEESSGNVNKEKKKPQLTATLLDLIICMITYLPVSSYSALFSMFSLTVNSADALIQKRAYRIITKLSELKSGSTAVAQFISDIENVMVDSASSVQTSAKAARLTAIKTIVELLPLDHLDFIVRTVAEVILSTKDVNEKSRETAFDTLICMGRKMNEPNGIIKLFQIPGYDPTTPDQSSSISEFFKIISAGLIGESQHMVSSSITGYACLVFEFKNELDSGILMDIYDTIELYLTSNSREIVKSAIGFTKVCVLGLPEELMRPKVPELLLKLLRWSHEHTGHFKAKVKHIIERLIRRFGYDYIEANFPEEDRRLLTNIRKMRNRNKRKDEEVTTGVSDVAATKGSRFMSAFDEAVYGSDEENDNGSDQEENVAGGKMKNGAKQFIVESGDNPLDLLDSQTLAHISSTRPKKFNKNQNRARFNDDAFNFDSEGKLVVKGQPKPSTNVDDPLSAVTSGINAYLEAVKSGPVRGQRNKLKFRKNGKDSDEFGDDDDGEKDSRLMRGRVNQGNKIGKHNKKGPKFKSRKKL
For the molecule B5, the binding result in assay [1] is listed as “binds”.

B6: Nsa2 (protein, UniProt P40078 1-261)
chain: MPQNDYIERHIKQHGKRLDHEERKRKREARESHKISERAQKLTGWKGKQFAKKRYAEKVSMRKKIKAHEQSKVKGSSKPLDTDGDALPTYLLDREQNNTAKAISSSIKQKRLEKADKFSVPLPKVRGISEEEMFKVIKTGKSRSKSWKRMITKHTFVGEGFTRRPVKMERIIRPSALRQKKANVTHPELGVTVFLPILAVKKNPQSPMYTQLGVLTKGTIIEVNVSELGMVTAGGKVVWGKYAQVTNEPDRDGCVNAVLLV
As for B6, the binding entry in assay [2] and in assay [1] was “binds” throughout.
